In article PMC7119369:
Results are given in words; binding and its absence hold for the method and conditions named. In cells and extracts the contact can be indirect. Some entries that bind do so weakly or less than the wild type.

Protein sequences, listed by entry. Tags and fused reporters are not part of them. Residues count along the entry.
UniProt P31749: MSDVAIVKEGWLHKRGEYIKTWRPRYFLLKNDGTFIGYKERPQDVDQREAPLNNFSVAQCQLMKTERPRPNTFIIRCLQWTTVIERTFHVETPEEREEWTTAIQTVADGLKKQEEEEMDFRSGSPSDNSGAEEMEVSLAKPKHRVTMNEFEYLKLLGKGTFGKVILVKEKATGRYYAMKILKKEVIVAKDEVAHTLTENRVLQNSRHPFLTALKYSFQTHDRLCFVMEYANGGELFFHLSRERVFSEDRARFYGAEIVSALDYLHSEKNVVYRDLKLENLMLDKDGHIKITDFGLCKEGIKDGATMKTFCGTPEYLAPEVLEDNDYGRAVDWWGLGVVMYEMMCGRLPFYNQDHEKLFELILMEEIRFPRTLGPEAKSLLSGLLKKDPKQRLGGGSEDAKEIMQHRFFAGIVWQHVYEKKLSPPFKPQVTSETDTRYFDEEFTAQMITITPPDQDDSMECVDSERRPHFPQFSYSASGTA
UniProt Q8IVW4, residues 4-286: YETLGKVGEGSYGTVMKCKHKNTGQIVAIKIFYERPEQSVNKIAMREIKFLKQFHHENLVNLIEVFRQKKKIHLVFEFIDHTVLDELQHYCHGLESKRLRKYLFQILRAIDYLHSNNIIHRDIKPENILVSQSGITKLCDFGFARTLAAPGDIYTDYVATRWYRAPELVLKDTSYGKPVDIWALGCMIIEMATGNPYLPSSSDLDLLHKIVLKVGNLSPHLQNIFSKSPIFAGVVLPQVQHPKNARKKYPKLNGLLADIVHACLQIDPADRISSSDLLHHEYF

Target: Myc-Akt1 (UniProt P31749)
Test: co-IP; HA-tagged CDKL3 constructs and Myc-Akt1 or Akt1 constructs expressed exogenously; total cell lysate on α-HA-agarose or α-myc-agarose at 4°C overnight; resin washed five times with TBS-T; Western blot; reverse IP also done for the Akt1 mapping

binding: binds
Substance: HA-CDKL3 K (Kinase domain) (from UniProt Q8IVW4 4-286) (domain or fragment)
